# From US20130202594A1, “ALK1 Antagonists and Their Uses in Treating Renal Cell Carcinoma” (priority 2012, published 2013)
# At least one structure is not confirmed: it was looked up by name or label, or the drawing left a doubt.
# Columns and labels:
# [1] = tested on: advanced RCC; conditions: patients with advanced disease; cited from earlier work
# [2] = tested on: A498 cells; test: A498 human RCC tumor xenograft model; type: in vivo, mouse; conditions: combination study; sunitinib 53.6 mg/kg gavage; ALK1-Fc 10 mg/kg IP
# Method: (§1) A498 cells, a VHL-deficient human RCC cell line (see Iliopoulos et al., Nature Medicine 1995; 1:822-6), was obtained from the American Type Culture Collection, and cultured in Eagle's minimal essential medium. Media was supplemented with 2 mmol/L L-glutamine, 10% FCS, and 1% streptomycin (50 μg/mL), and cells were cultured at 37° C. with 5% CO2. […] cells were harvested from subconfluent cultures by a brief exposure to 0.25% trypsin and 0.02% EDTA. Trypsinization was stopped with medium containing 10% fetal bovine serum, and the cells were washed once in serum-free medium and resuspended in PBS. Only suspensions consisting of single cells with >90% viability were used for the injections.
# To establish human RCC xenografts, A498 tumor cells were injected subcutaneously (1×10^7 cells) into the flanks of 6- to 8-week-old female athymic nude/beige mice (Charles River Laboratories) that were of 20 g average body weight. Tumors developed in >80% of the mice and were usually visible within a few days of implantation. Mice were treated with Fc or ALK-Fc when the tumors had grown to a diameter of 12 mm. ALK-Fc (10 mg/kg) was administered 3 times per week intraperitoneally. Tumors were measured daily while mice were on treatment.
# A498 cell culture and xenograft establishment was performed as described in Example 14. […] Tumors were measured daily while mice were on treatment.
# [3] = tested on: 786-0 cells; test: 786-0 human RCC tumor xenograft model; type: in vivo, mouse; conditions: sunitinib 53.6 mg/kg gavage 6 of 7 days; ALK1-Fc 10 mg/kg IP 3 times per week
# Method: as §1, with “786-0” for “A498”, “von Hippel Lindau (VHL)-deficient” for “VHL-deficient”, “renal cell carcinoma (RCC)” for “RCC”, “RPMI 1640 medium (Cellgro).” for “Eagle's minimal essential medium.”, “serum” for “serum,”
# To establish human RCC xenografts, 786-0 tumor cells were injected subcutaneously (1×10^7 cells) into the flanks of 6- to 8-week-old female athymic nude/beige mice (Charles River Laboratories) that were of 20 g average body weight. Tumors developed in >80% of the mice and were usually visible within a few days of implantation. Mice were treated with vehicle plus Fc, sunitinib plus Fc, vehicle plus ALK-Fc, or sunitinib plus ALK-Fc when the tumors had grown to a diameter of 12 mm. Sunitinib (53.6 mg/kg; Pfizer) was administered 6 of 7 days per week by gavage beginning. […] Tumors were measured every two days while mice were on treatment.
compound,measurement,setting,value
"CCN(CC)CCNC(=O)c1c(C)[nH]c(/C=C2\C(=O)Nc3ccc(F)cc32)c1C [sunitinib, reference compound]",overall survival,[1],26.4 months
same,tumor growth,[2],slowed tumor growth
same,tumor growth,[3],slowed tumor growth
